PubChem BioAssay AID1259274 | Sanger Institute | 2017
The deposit covers 794 reagents; below is an unselected part. Over the whole deposit, 11 (1.4%) are marked active. 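Calls rest on knock-down without drug only; synergy scores with anchor drugs were not used for the essential call.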 Further read-outs or replicates are left out here. The record does not give: the amount of reagent, the time to read-out.

- Assay: 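siRNA screen of kinases for partners that act in synergy with targeted drugs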 (primary screen)
- Cells: human RKO colorectal cancer cells
- Reagents: siRNA pool against human genes
- Treatment: anchor drugs BYL719 at 1 µM, cetuximab at 5 µg/ml or trametinib at 10 nM; DMSO vehicle as the no-drug arm
- Detection: 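Viability of cells versus control pool 2 (non-targeting) averaged across replicates; knock-down-only robust z-score; for every anchor drug (BYL719, cetuximab, trametinib) a synergy score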
- Direction: viability z-score, siRNA alone: higher = more viable cells; low values mean essential gene
- Call rule: 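a single knock-down scoring under -3 on the robust z-score, meaning fewer cells, counts as essential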
- Meaning of the calls: active = essential when knocked down alone; inactive = no change alone

For MLKL (GeneID 197259), the entry reads viability z-score, siRNA alone 0.796; inactive. PRKCQ (GeneID 5588) gave viability z-score, siRNA alone 1.19; inactive. Against MKNK1 (GeneID 8569), the values are viability z-score, siRNA alone 1.1; inactive. MYLK4 (GeneID 340156) scored viability z-score, siRNA alone -0.963; inactive. For EPHA5 (GeneID 2044), the values are viability z-score, siRNA alone 0.942; inactive. Knock-down of TJP2 (GeneID 9414) resulted in: viability z-score, siRNA alone -0.208; inactive.

With knock-down of ALK (GeneID 238) the results were viability z-score, siRNA alone 0.0403; inactive. PCK1 (GeneID 5105) scored viability z-score, siRNA alone -1.04; inactive. Against NEK1 (GeneID 4750), the values are viability z-score, siRNA alone -1.06; inactive. Silencing of DLG2 (GeneID 1740) resulted in: viability z-score, siRNA alone 0.338; inactive. Against MAP2K5 (GeneID 5607), the entry reads viability z-score, siRNA alone 1.05; inactive. After knock-down of EIF2AK4 (GeneID 440275) the results were viability z-score, siRNA alone -0.359; inactive.

MAPKAPK2 (GeneID 9261) gave viability z-score, siRNA alone 0.359; inactive. Against PTPN11 (GeneID 5781) the deposit lists viability z-score, siRNA alone 0.402; inactive. NME6 (GeneID 10201) gave viability z-score, siRNA alone -0.314; inactive. Knock-down of PEAK1 (GeneID 79834) came out at: viability z-score, siRNA alone 0.633; inactive. For MAP3K13 (GeneID 9175), the entry reads viability z-score, siRNA alone 0.597; inactive. For MYH10 (GeneID 4628) the deposit lists viability z-score, siRNA alone 1.19; inactive.

Depletion of PRKCB (GeneID 5579) resulted in: viability z-score, siRNA alone 0.411; inactive. FER (GeneID 2241) scored viability z-score, siRNA alone -0.0122; inactive. After knock-down of SRPK3 (GeneID 26576), the record shows viability z-score, siRNA alone 1.19; inactive. After knock-down of UCK1 (GeneID 83549), the screen gave viability z-score, siRNA alone 0.446; inactive. After knock-down of SHPK (GeneID 23729), the screen gave viability z-score, siRNA alone -1.2; inactive. For RIPK4 (GeneID 54101), the values are viability z-score, siRNA alone 0.483; inactive.

DGKI (GeneID 9162) gave viability z-score, siRNA alone 0.377; inactive. With knock-down of PRKAR2A (GeneID 5576) the results were viability z-score, siRNA alone -0.868; inactive. With knock-down of PHKB (GeneID 5257), the screen gave viability z-score, siRNA alone 0.739; inactive. Silencing of CDKN1C (GeneID 1028) resulted in: viability z-score, siRNA alone 0.887; inactive.

A portion taken from the entries so far:
UCK1 (GeneID 83549): viability z-score, siRNA alone = 0.446; outcome = inactive
SHPK (GeneID 23729): viability z-score, siRNA alone = -1.2; outcome = inactive
